Source: article PMC6983718
No constants are given. Whether binding was seen depends on the method and setting. In cells and extracts the contact can be indirect. Some entries that bind do so weakly or less than the wild type. For some assays here: Sequences can lack the tags named with a protein. Each block holds one molecule with its values, some of them ahead of it.

By UniProt entry, the sequences of proteins in these tests, tags left out.
UniProt P02828: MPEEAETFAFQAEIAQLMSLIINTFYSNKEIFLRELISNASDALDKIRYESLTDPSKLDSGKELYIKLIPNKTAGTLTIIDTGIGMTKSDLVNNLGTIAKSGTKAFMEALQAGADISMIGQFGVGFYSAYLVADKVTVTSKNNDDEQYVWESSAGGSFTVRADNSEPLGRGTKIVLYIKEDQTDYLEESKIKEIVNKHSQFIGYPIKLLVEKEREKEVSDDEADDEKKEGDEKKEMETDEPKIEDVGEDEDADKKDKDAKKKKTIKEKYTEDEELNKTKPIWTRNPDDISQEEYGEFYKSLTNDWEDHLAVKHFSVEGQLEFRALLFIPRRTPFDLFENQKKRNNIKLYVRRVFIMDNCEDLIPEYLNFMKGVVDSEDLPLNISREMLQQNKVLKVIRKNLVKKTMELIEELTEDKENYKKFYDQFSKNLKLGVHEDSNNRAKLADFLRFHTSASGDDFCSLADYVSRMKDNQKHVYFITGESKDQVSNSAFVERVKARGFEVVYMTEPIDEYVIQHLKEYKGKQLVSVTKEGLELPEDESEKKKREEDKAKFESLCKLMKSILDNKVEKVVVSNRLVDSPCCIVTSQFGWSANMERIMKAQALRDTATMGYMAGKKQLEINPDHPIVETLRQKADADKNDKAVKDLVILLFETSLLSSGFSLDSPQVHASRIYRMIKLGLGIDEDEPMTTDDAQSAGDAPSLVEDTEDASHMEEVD

What was measured:
[1] = target: T1, Mora–GFP (Drosophila) (UniProt Q9VCC0); assay: co-IP; anti-GFP IPs from extracts of control (WT) embryos and of embryos expressing Mora–GFP or Hsp83–GFP, western blot
T1 sequence: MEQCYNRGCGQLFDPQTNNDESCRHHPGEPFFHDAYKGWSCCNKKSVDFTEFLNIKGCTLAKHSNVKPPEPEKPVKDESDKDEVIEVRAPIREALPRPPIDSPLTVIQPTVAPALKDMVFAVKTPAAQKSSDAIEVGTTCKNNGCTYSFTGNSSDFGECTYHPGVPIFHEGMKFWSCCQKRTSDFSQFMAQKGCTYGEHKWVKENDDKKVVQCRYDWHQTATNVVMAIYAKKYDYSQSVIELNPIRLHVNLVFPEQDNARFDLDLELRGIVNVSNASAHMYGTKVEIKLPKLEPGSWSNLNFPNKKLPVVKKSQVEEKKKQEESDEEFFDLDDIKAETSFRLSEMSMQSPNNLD

[2] = target: Hsp83–GFP (Drosophila) (UniProt P02828); assay: as above

binding [1]: binds
Molecule: Hsp83 (from UniProt P02828 1-717)

binding [2]: binds
B1: Mora (protein, UniProt Q9VCC0 1-354)
chain: T1 sequence
